## Primary screen of a compound library

Sequences of proteins named here, by UniProt entry; tags and fusion partners are left off. Residues count along the entry.
UniProt Q8IDJ8, 1-583: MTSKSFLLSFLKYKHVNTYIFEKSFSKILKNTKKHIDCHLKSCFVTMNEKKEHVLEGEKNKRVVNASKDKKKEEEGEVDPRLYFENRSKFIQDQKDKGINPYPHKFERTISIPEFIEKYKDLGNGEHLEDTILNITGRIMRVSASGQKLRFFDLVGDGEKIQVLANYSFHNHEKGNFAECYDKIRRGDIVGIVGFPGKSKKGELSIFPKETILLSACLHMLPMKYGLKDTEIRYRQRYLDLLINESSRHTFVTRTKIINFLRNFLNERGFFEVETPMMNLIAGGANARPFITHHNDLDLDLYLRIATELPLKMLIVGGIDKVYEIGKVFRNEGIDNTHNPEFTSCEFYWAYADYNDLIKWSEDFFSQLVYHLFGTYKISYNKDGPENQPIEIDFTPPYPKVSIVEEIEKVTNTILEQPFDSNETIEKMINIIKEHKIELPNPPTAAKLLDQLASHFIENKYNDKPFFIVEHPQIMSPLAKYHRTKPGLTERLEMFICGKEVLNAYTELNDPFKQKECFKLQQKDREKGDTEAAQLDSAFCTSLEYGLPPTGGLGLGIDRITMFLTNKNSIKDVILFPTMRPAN
UniProt P9WPC5, whole entry: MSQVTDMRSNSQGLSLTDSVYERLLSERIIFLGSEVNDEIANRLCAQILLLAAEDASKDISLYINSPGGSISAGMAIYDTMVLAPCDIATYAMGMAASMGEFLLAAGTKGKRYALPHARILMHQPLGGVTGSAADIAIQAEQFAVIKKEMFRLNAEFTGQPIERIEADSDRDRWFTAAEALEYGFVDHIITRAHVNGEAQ
UniProt P9WPC3, whole entry partner: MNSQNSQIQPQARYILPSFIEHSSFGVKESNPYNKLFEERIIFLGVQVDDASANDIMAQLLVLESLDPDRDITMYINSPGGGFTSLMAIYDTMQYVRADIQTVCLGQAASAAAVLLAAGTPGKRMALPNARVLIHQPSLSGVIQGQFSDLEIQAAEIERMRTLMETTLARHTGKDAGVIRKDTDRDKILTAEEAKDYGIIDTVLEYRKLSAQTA
UniProt P9WFT3, whole entry: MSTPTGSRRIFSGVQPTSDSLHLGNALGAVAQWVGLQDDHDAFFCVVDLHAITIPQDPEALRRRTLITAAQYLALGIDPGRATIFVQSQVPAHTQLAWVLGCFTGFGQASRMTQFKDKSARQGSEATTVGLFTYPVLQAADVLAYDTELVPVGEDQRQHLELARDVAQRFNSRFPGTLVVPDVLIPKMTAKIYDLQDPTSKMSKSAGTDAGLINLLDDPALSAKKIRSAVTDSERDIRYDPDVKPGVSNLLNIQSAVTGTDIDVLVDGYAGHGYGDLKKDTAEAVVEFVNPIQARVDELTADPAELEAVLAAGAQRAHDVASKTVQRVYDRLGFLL

Source: ChEMBL document CHEMBL3988442, “University of Dundee, Small-Polar-MMV Screening Library” (2021).

PfKRS1: 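Lysine-tRNA ligase, Plasmodium falciparum 3D7 (UniProt Q8IDJ8). Enzyme assay of the cytosolic lysyl-tRNA synthetase in 384-well plates, read by luminescence. Compounds at 30 µM. Direction is inferred from only a few compounds that gave an IC50; most scored high, so higher reads as stronger inhibition. Size under these conditions: about 69,000 compounds, about 49 of them at 50% or above in at least one test.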
ClpP1P2: 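Protease assay of ClpP1P2, read by the AMC dye that it sets free. Target: ClpP1P2, Mycobacterium tuberculosis (UniProt P9WPC5 and UniProt P9WPC3). Tested at 50 µM. Higher reads as stronger inhibition, judged from the few compounds that gave an IC50. Most other retested compounds had strongly negative values. Of about 69,000 compounds tested this way, about 10 (0.015%) reached 50% or more in at least one test.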
MtTrpRS: 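Tryptophan-tRNA ligase, Mycobacterium tuberculosis (UniProt P9WFT3). Enzyme assay of tryptophanyl-tRNA synthetase; the read-out is not stated. Compounds at 10 µM. Higher most likely means stronger inhibition; the record gives no direction and few retests gave an IC50. Of about 65,000 compounds tested this way, about 64 (0.098%) reached 50% or more in at least one test.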

Each number is a percent effect as filed. How 0% and 100% were set is not recorded. Most values in the screen are low, and negative values occur. This is an unselected part of the compounds tested. A dash means the value is not listed here; it may have been measured.

compound,PfKRS1,ClpP1P2,MtTrpRS
CC(C)(C)C(=O)NS(=O)(=O)c1ccc(C#N)cc1C(F)(F)F,4.961,3.415,-1.8
CNS(=O)(=O)c1ccc(CNC(=O)N(C)CC(C)C)cc1,5.061,8.997,7.841
CCc1nnc(N2CCN(CCc3ccccc3)C(=O)C2)o1,-2.875,-3.413,-6.197
CC1CN(C(=O)NCCn2ccnc2)CCO1 (stereo not given),4.325,-0.6314,-6.611
CCOCC1CN(C(=O)Cc2ccccn2)Cc2cnn(C)c21 (stereo not given),-0.1651,-12.35,-5.585
CC(C)Cn1ccnc1CNC(=O)NC(C)c1nccs1 (stereo not given),3.176,-6.149,-5.146
O=C(Nc1ncn(Cc2cccc(Br)c2)n1)C1CCC1,7.554,-8.339,-2.142
O=C1[C@H]2CN(Cc3nccs3)C[C@H]2CN1c1cncnc1,1.208,14.28,7.716
CN(C)C(=O)c1cc2ncc(C(=O)NC3CC3)cc2n1C,5.463,-4.534,-
c1ccc2c(NC3CCc4ncnn4C3)ncnc2c1 (stereo not given),4.966,3.553,-3.664
Cc1ccc(C(=O)N2CCCC(c3[nH]ncc3S(C)(=O)=O)C2)s1 (stereo not given),-1.885,-12.38,-
O=C(NCc1cc2ccccc2[nH]1)C1CCCN(C(=O)N2CCCC2)C1 (stereo not given),1.071,-0.1361,0.2154
CNCc1n[nH]c(=O)n1CC1CCCCC1,5.275,1.425,-6.351
Cc1cnc(C(=O)N2CCC3(CCN(Cc4ccccn4)C3=O)C2)cn1 (stereo not given),6.505,6.697,1.826
CC(C)NC(=O)C1CCc2nnc(CNC(=O)c3ccc(Cl)cc3Cl)n21 (stereo not given),-1.494,-10.95,1.469
CS(=O)(=O)N[C@@H]1CCN(Cc2ccncc2)[C@H]1Cc1cccnc1,5.318,-4.935,-5.679
Cc1nc2c(c(N(C)Cc3ccccc3-n3cccn3)n1)CCNCC2,5.99,-13.99,0.8675
O=C(Cc1cccs1)NCc1ccnc(OC2CCOCC2)c1,7.587,-1.298,-3.008
Cc1nc2cc(=O)[nH]n2c(C)c1CNC(=O)C(C)Cc1ccccc1 (stereo not given),2.437,2.058,0.9082
Cc1cnn(CC2CCCN2C(=O)c2cnc(-c3ccco3)s2)c1 (stereo not given),0.04133,-14.88,0.6152
CN1CCN(Cc2n[nH]c(=O)n2CC2CCCCC2)CC1,-1.351,9.585,-4.562
O=C(NCC1CC1)[C@H]1CN(Cc2nccs2)C[C@H]2OCC[C@@H]12,0.4278,1.317,-2.502
Cc1ccc(C2(O)CCN(C(=O)CCn3ccc(=O)[nH]c3=O)CC2)nc1,4.859,30.15,2.422
Cc1c(Br)cccc1C(=O)NC(C)CN1CCCC1=O (stereo not given),4.44,-11.78,-0.2138
O[C@H]1[C@H](n2cc(-c3ccccc3)nn2)c2ccccc2C12CCNCC2,3.272,-1.742,-3.981
Cc1noc(-c2ccc(N3CCCC(C(=O)N4CCSCC4)C3)nc2)n1 (stereo not given),-1.101,-8.411,-2.637
CSC1(CNc2ccc(Br)cn2)CCOCC1,-3.6,-11.85,2.385
O=C(c1ccoc1)N1CCC2(C1)CN(c1ncccn1)C2,10.62,6.374,-1.302
CCN(CCO)C[C@@H]1CN(c2nc(C)cc(C)n2)C[C@@H]1CO,2.365,-8.322,2.855
CCc1cc(NCCNc2cccnc2)n2nccc2n1,0.7169,-16.84,-2.399
COc1ccc(CNC2CCN(CCc3ccncc3)CC2)cc1O,6.322,0.3396,0.9381
CC(C)Nc1ncnc2c1CCN(C(=O)Cc1ccccn1)CC2,-3.86,6.677,7.638
O=C(c1ccc(-n2ccnc2)nc1)N1CCN2CCCCC2C1 (stereo not given),0.04646,-2.189,3.841
Cc1ccc(N2CCN(C(=O)CCc3ccc(O)cc3)CC2=O)cc1,1.257,0.7076,-0.4881
COCc1ccc(C(=O)NCCCNc2ccc(C(F)(F)F)cn2)cc1,2.041,-42.08,-3.432
CCCOc1ccc(C(=O)N2C[C@@H](CN3CCCC3)[C@@H](CO)C2)cc1Cl,-0.7454,-0.2558,-0.8256
O=C(c1ccc(S(=O)(=O)NCc2ccon2)cc1)N1CCNCC1,2.479,-8.559,1.342
CC(C)OCCCNC(=O)CN1CCN(c2nccs2)CC1,1.324,0.04162,5.203
CC(=O)N1N=C(COc2ccc3c(c2)OCO3)OC1c1ccc(C)cc1 (stereo not given),3.564,-19.69,-2.522
Cc1noc([C@@H]2C[C@H]3CN(Cc4scnc4C)C[C@H]3O2)n1,5.215,-2.792,-4.333
O=C(CN(Cc1cccs1)C1CCS(=O)(=O)C1)NC1CCCCC1 (stereo not given),-0.9847,8.543,4.541
C[C@H]1CN(C(=O)N(C)C)C[C@@]12CCN(c1ccsc1)C2=O,-1.254,2.062,0.1564
N#CCCCN1CCCC1Cc1ccccc1 (stereo not given),-0.2193,1.607,-10.82
COc1ccc(CN2CCn3cc(CN4CCN(C)CC4)nc3C2)cc1,0.2212,-2.99,3.226
CCC(=O)N1CCCN(Cn2nc(C)c(Br)c2C)CC1,0.67,-1.595,-0.7342
COc1ccc(C(CNC(=O)c2cnc(C)cn2)N2CCOCC2)cc1 (stereo not given),5.048,7.06,0.6173
Cn1nnnc1SCCNC(=O)C1CCN(C(=O)C2CCCC2)CC1,4.988,-4.03,0.1487
CC(C)OCC(=O)Nc1ccc(Oc2ccc3c(c2)OCO3)nc1,2.468,-6.732,-0.1608
CN(C)C(=O)c1cnc2n1CCN(Cc1ccccc1)C2,0.3932,3.582,5.11
CCc1nc(C2CCCN2C(=O)c2ccc3c(c2)nnn3CC)no1 (stereo not given),-0.5862,-0.5042,1.605
c1ccc(-c2nc(CN3CCc4c(ncn4C4CC4)C3)cs2)cc1,0.1135,0.2965,-1.394
CNC(=O)C1(c2cnccn2)CCCN1C(=O)c1ccc(OC)cc1 (stereo not given),-1.458,9.849,-
CC(C)(C)c1nc(CN2CCOC(Cn3cccn3)C2)no1 (stereo not given),-0.464,-19.47,-4.023
CCCN(CCC)C(=O)CN1CCCC1C(=O)N(C)C (stereo not given),-2.294,12.76,-1.888
COc1ccc(CNC(=O)CCCc2nnc3ccc(OC)nn23)cc1,2.987,-9.132,2.022
CC(C)CN1C(=O)CO[C@@H]2CN(C(=O)[C@H]3CCCO3)C[C@H]21,1.067,4.829,-0.6342
Cc1nc(N2CCOCC2)nc2c1CCN(C(=O)C1(C#N)CC1)CC2,3.706,7.229,-8.095
CN(Cc1csc2ccccc12)C(=O)NC1CCS(=O)(=O)C1 (stereo not given),4.871,-12.75,1.961
CC(C)[C@H](NC(=O)N1CCN(c2ccc(Cl)cc2)CC1)C(=O)NC1CC1,4.551,1.371,1.634
COc1ccc(C(=O)N2C[C@@H](C(=O)O)[C@H](c3ccccc3C)C2)c(O)c1,1.723,-0.0888,-0.3353
OC1CCCN(Cc2ccc(F)c3cccnc23)C1 (stereo not given),4.185,4.611,-6.156
Cc1ncc(CN(C)C2CCCN(c3cccnn3)C2)s1 (stereo not given),4.454,13.89,0.4402
OCC(O)CSCc1cc(Cl)ccc1Cl (stereo not given),-0.7192,-5.291,-0.9091
CNS(=O)(=O)c1cc(C(=O)N(C)Cc2sccc2C)c(C)o1,-0.3784,-11.09,0
Cc1nn(C)c(N(C)C)c1CNCc1cccc(Cl)c1,1.034,3.299,-4.134

Some entries from above, unchanged:

compound,PfKRS1,ClpP1P2,MtTrpRS
Cc1cnc(C(=O)N2CCC3(CCN(Cc4ccccn4)C3=O)C2)cn1 (stereo not given),6.505,6.697,1.826
CC(C)OCC(=O)Nc1ccc(Oc2ccc3c(c2)OCO3)nc1,2.468,-6.732,-0.1608
CC(C)OCCCNC(=O)CN1CCN(c2nccs2)CC1,1.324,0.04162,5.203
O=C(NCC1CC1)[C@H]1CN(Cc2nccs2)C[C@H]2OCC[C@@H]12,0.4278,1.317,-2.502